Several values for one entry are separate records, joined by “and”; a condition that tells them apart may be missing. Equal values may be shown once. This is one part of the list. These are further read-outs of the screen, such as a control signal, another cell line or another target. No call is given for them. The list favours compounds with an active or inconclusive main result. Potencies come from curve fits of mixed quality, noted in brackets.
Assay: qHTS Assay to Find Inhibitors of Chronic Active B-Cell Receptor Signaling
Conditions: ABC-DLBCL IkBa-CBG/CBR reporter, luminescence ratio (green luciferase fused to IkBa over red control in TMD8 lymphoma cells), 4 h
From the text: NIH Molecular Libraries Probe Production Network [MLPCN] NIH Chemical Genomics Center [NCGC] MLPCN Grant: 1 R03 DA031086-01A1 PI Name: Dr. R. Eric Davis NCGC Assay Overview: Diffuse large B-cell lymphoma (DLBCL) is the most common category of non-Hodgkin lymphoma, with ~20,000 new cases per year in the United States. DLBCL should be regarded as a collection of different neoplasms. Microarray gene expression analysis has defined two principal types of DLBCL, named for their similarity to normal B cell stages or activation states: a germinal center B-cell (GCB) type, and an activated B-cell (ABC) type. In ABC-DLBCL, a constitutive high-level activity of the NF-kappaB family of transcription factors has been observed (1) and NF-kappaB target genes are more highly expressed in ABC primary tumors than in GCB tumors. Functional studies have shown a constitutive high-level activity of the IkappaB (inhibitor of kappa-B) kinase (IKK) complex. […] Further analysis of DLBCL primary tumors for NF-kappaB target gene expression imply that although CARD11 is required for constitutive IKK activity in all ABC-DLBCL lines, mutations in CARD11 may be the root cause of IKK activation only in lines or tumors with such mutations. In other words, CARD11 mutations may explain NF-kappaB activation in only 10% of ABC-DLBCL cases. […] This process has been termed 'chronic active BCR signaling' (CABS). The goal of this screen is to find small-molecule inhibitors of the CABS pathway found in ABC-DLBCL lines using a cell-based assay that measures IkappaBalpa stability, which has already been extensively validated in the OCI-Ly3 line (PubChem AID:445; REF: 4). […] The assay uses green (CBG68) and red (CBR) emitting beetle luciferases [Chroma-GloTM developed by Promega Corp.] where the green luciferase is fused to IkappaBalpha and the red luciferase is present in its native state. Both luciferase genes are stably present in the TMD8 human ABC DLBCL cell line, but their expression is under the control of tetracycline-inducible promoters. Following the addition of doxycycline to induce expression of the luciferases, the green luminescence in control cultures rises only slowly because the CBG fusion partner IkappaBalpha is targeted by IKK activity for rapid degradation. In contrast, green luminescence rises rapidly in the presence of proteasome inhibitors or IKK inhibitors. The rise in red luminescence of CBR is not affected by proteasome or IKK inhibitors, and serves as normalization for cell number and nonspecific effects. Compounds were screened as a concentration-titration series that ranged from 46 uM to 3 nM.
NCGC Assay Protocol Summary: Cells were seeded in 1536-well plates at 5000 cells/4uL in IMDM medium containing 0.5% FBS, w/o phenol red, 1% penicillin/streptomycin. Then, 23 nL of compounds or DMSO were delivered to each well using a pin tool. One uL 20ng/ml doxycycline was then dispensed into white solid 1536-well plates and the plates were incubated at 37C/5% C02 in a cell incubator for 4 hrs. Then 4 uL luminescent substrate mix (in-house prepared: 150 mM Tris-Cl, pH 7.6, 3 mM MgCl2, 1% Triton X-100, 5 mM DTT, 0.2 mM CoA, 0.15 mM ATP, 5 mM D-luciferin, final concentrations) was added to each well. The plate was incubated at r.t. for 10-15 min. The plates were measured on a ViewLux plate reader for green luminescence (540/20 nm filter) and red luminescence (618/8 nm filter). The green and red luminescent signals were corrected for red and green luminescence filter overlap using previously determined filter calibration constants (determined using the procedure outlined in the Promega Technical Manual; REF 4). The %Activity was determined from the ratio of corrected green/red luminescent values. MG132 were used as control. […] Red luminescent %Activity was normalized to the difference between red luminesence in basal cells (0%Activity) and zero luminescence (-100% Activity). […]

[1] = measured here: CBR red luminescence, cell number
[2] = measured here: IkBa-CBG green luminescence

Row | SMILES | AC50 [1] | AC50 [2]
1 | CCOc1ccc(N(CC(=O)Nc2cccc(F)c2)S(=O)(=O)c2c(C)noc2C)cc1 | 25.1 µM [falling, single point] | –
2 | O=C(Nc1cccc(Cl)c1)Nc1ccc2c(c1)C(=O)OC2 | 7.31 µM [rising, partial curve, poor fit] | –
3 | Cc1c(NC(=O)CSc2ccc3ccccc3n2)c(=O)n(-c2ccccc2)n1C | 29.1 µM [rising, single point] | –
4 | CC1Cc2ccccc2N1C(=O)CN1C(=O)NC(C)(c2ccc3c(c2)OCCO3)C1=O (configuration not stated) | 20.6 µM [falling, partial curve, poor fit] | –
5 | CCOC(=O)[C@H]1[C@H]2COc3ccccc3[C@@H]2N2C(=O)c3ccc(Cl)cc3NC(=O)[C@@]12C | 9.2 µM [falling, partial curve] | –
6 | CCOc1ccc2[nH]c3c(NCC(C)C)ncnc3c2c1 | 3.98 µM [rising, full curve, poor fit] | –
7 | COc1cc(-c2nc(CN3CCCCC3CCNC(C)=O)c(C)o2)ccc1F (configuration not stated) | 35.5 µM [rising, single point] | –
8 | C=CCn1c(=O)/c(=C2/Sc3cc(OC)ccc3N2C)s/c1=C1\C(=O)N(CC)C(=S)N1C | 35.5 µM [rising, single point] | –
9 | C/C(=N/NC(=O)c1ccccn1)c1ccc(O)cc1 | 15.8 µM [falling, partial curve, poor fit] | –
10 | Cc1sc(NC(=O)c2ccccc2)c(C(=O)c2ccccc2)c1C | 16.4 µM [rising, partial curve] | –
11 | Cc1ccnc(NC(=O)c2ccc3c(c2)NC(=O)C(C)S3)c1 (configuration not stated) | 1.46 µM [falling, full curve] | –
12 | O=C(Nc1ccc(NC(=O)C2CC2)nc1)c1ccccn1 | 8.91 µM [falling, partial curve, poor fit] | –
13 | CS(=O)(=O)Nc1ccc(C(=O)Nc2ccc3c(c2)OCCO3)cc1 | 8.2 µM [falling, partial curve, poor fit] | –
14 | Cc1ccccc1Cn1cnc2c(oc3ccccc32)c1=O | 15.8 µM [falling, single point] | –
15 | CC(C)=CCC[C@](C)(O[C@@H]1O[C@H](CO[C@@H]2OC[C@@H](O)[C@H](O)[C@H]2O)[C@@H](O)[C@H](O)[C@H]1O)C1CC[C@]2(C)C1[C@H](O)CC1[C@@]3(C)CC[C@H](O[C@@H]4O[C@H](CO)[C@@H](O)[C@H](O)[C@H]4O)C(C)(C)C3CC[C@]12C (some centres not stated) | 16.4 µM [rising, single point] | –
16 | O=C1SC(SCc2ccccc2)=N/C1=C\c1ccc(C(=O)O)cc1 | 12.6 µM [falling, partial curve] | –
17 | O=C1C2C3C=CC(C3)C2C(=O)N1CCN1CCN(S(=O)(=O)c2ccc3ccccc3c2)CC1 (configuration not stated) | 1.84 µM [rising, partial curve, poor fit] | –
18 | CCOC(=O)c1c(C)nc2c(c1-c1ccc(OC)cc1)C(=O)CC(C)(C)C2 | 25.1 µM [falling, single point] | –
19 | CSc1ccccc1NC(=O)c1cc(-c2ccc3c(c2)OCO3)on1 | 0.251 µM [falling, full curve, poor fit] | –
20 | O=C(COc1ccc([N+](=O)[O-])cc1)NNC(=O)c1cccs1 | 20 µM [rising, partial curve, poor fit] | –

Row | SMILES | AC50 [1] | AC50 [2]
21 | CC1(C)CC(=O)C2=C(C1)OC(N)=C(C#N)C2c1ccc(OC(=O)N2CCOCC2)cc1 (configuration not stated) | 6.31 µM [falling, single point] | –
22 | COc1ccccc1N1CCN(/N=C/C=C/c2ccccc2[N+](=O)[O-])CC1 | 31.6 µM [falling, single point] | –
23 | CN(C(=O)c1ccco1)c1nc(-c2ccc(F)cc2)cs1 | 1.41 µM [rising, partial curve, poor fit] | –
24 | C/C(=N\NC(=O)Cn1nc(C)c([N+](=O)[O-])c1C)c1ccco1 | 10 µM [rising, single point] | –
25 | O=C(CN1C(=O)NC2(CCCC2)C1=O)NNC(=O)c1ccc(Br)cc1 | 2.31 µM [rising, partial curve, poor fit] | –
26 | CC(=O)c1cnc(-c2ccccn2)s1 | 10 µM [rising, partial curve, poor fit] | –
27 | Cc1ccc(O)c(NC(=O)COc2cc(C)ccc2C)c1 | 0.82 µM [rising, full curve, poor fit] | –
28 | CN1CCNC(=O)C1CC(=O)N1CC=C(c2ccc(F)cc2)CC1 (configuration not stated) | 35.5 µM [falling, single point] | –
29 | CCCSc1cc(=O)n(-c2ccccc2)nc1C(=O)O | 8.91 µM [falling, partial curve, poor fit] | –
30 | Cc1ccc(C(=O)N/C(=C\c2cccs2)C(=O)NCC2CCCO2)cc1C (configuration not stated) | 16.4 µM [rising, partial curve, poor fit] | –
31 | Cc1ccc(C(=O)NNC(=S)NC(=O)c2ccco2)cc1 | 2.51 µM [falling, full curve, poor fit] | –
32 | CCOc1ccc(N2C(=O)CC(N(CCc3ccc(OC)c(OC)c3)C(=S)Nc3ccccc3)C2=O)cc1 (configuration not stated) | 14.6 µM [falling, partial curve, poor fit] | –
33 | O=c1[nH]c2cc3c(cc2cc1CN(Cc1cccnc1)Cc1nnnn1Cc1ccco1)OCCO3 | 23.1 µM [falling, partial curve, poor fit] | –
34 | COC(=O)c1sc(NC(C)=O)c(C(=O)OC)c1C | 4.61 µM [falling, full curve, poor fit] | –
35 | CCCCSc1nc(CCC)cc(=O)[nH]1 | 0.517 µM [rising, partial curve, poor fit] | –
36 | O=C(CSc1nc(Nc2ccccc2)nc(N2CCOCC2)n1)Nc1cc(Cl)ccc1O | 11.2 µM [falling, partial curve] | –
37 | Cc1ccc(C)c(NC(=O)CN(C)S(=O)(=O)c2ccccc2)c1 | 29.1 µM [falling, single point] | –
38 | Cn1nc(-c2ccc(C(=O)Nc3cccnc3)cc2)c2ccccc2c1=O | 6.51 µM [rising, single point] | –
39 | Fc1cccc(CNc2ncnc3ccc(-c4ccc5c(c4)OCO5)cc23)c1 | 32.6 µM [falling, single point] and 23.1 µM [falling, single point] | –
40 | O=C1c2c(O)ccc(O)c2C(=O)c2c(NCCNCCO)ccc(NCCNCCO)c21 | 23.1 µM [falling, partial curve] | 3.26 µM [rising, partial curve, poor fit]

13 entries already listed, ordered by SMILES length, ascending:
Row | SMILES | AC50 [1] | AC50 [2]
26 | CC(=O)c1cnc(-c2ccccn2)s1 | 10 µM [rising, partial curve, poor fit] | –
29 | CCCSc1cc(=O)n(-c2ccccc2)nc1C(=O)O | 8.91 µM [falling, partial curve, poor fit] | –
27 | Cc1ccc(O)c(NC(=O)COc2cc(C)ccc2C)c1 | 0.82 µM [rising, full curve, poor fit] | –
31 | Cc1ccc(C(=O)NNC(=S)NC(=O)c2ccco2)cc1 | 2.51 µM [falling, full curve, poor fit] | –
23 | CN(C(=O)c1ccco1)c1nc(-c2ccc(F)cc2)cs1 | 1.41 µM [rising, partial curve, poor fit] | –
28 | CN1CCNC(=O)C1CC(=O)N1CC=C(c2ccc(F)cc2)CC1 (configuration not stated) | 35.5 µM [falling, single point] | –
38 | Cn1nc(-c2ccc(C(=O)Nc3cccnc3)cc2)c2ccccc2c1=O | 6.51 µM [rising, single point] | –
39 | Fc1cccc(CNc2ncnc3ccc(-c4ccc5c(c4)OCO5)cc23)c1 | 32.6 µM [falling, single point] and 23.1 µM [falling, single point] | –
24 | C/C(=N\NC(=O)Cn1nc(C)c([N+](=O)[O-])c1C)c1ccco1 | 10 µM [rising, single point] | –
22 | COc1ccccc1N1CCN(/N=C/C=C/c2ccccc2[N+](=O)[O-])CC1 | 31.6 µM [falling, single point] | –
36 | O=C(CSc1nc(Nc2ccccc2)nc(N2CCOCC2)n1)Nc1cc(Cl)ccc1O | 11.2 µM [falling, partial curve] | –
33 | O=c1[nH]c2cc3c(cc2cc1CN(Cc1cccnc1)Cc1nnnn1Cc1ccco1)OCCO3 | 23.1 µM [falling, partial curve, poor fit] | –
21 | CC1(C)CC(=O)C2=C(C1)OC(N)=C(C#N)C2c1ccc(OC(=O)N2CCOCC2)cc1 (configuration not stated) | 6.31 µM [falling, single point] | –

The listing continues.

Row | SMILES | AC50 [1] | AC50 [2]
41 | COc1ccc(C(=O)C2CCCN(C(=O)c3ccccc3C(C)=O)C2)cc1F (configuration not stated) | 11.2 µM [falling, partial curve, poor fit] | –
42 | CCOP(=O)(OCC)C(NC(=O)Nc1ccc(Cl)cc1)C(=O)N(CC)CC (configuration not stated) | 2.59 µM [rising, full curve] | –
43 | O=C(Nc1cccc2ncccc12)c1ccc(-c2ccc(Cl)cc2Cl)o1 | 4.47 µM [falling, partial curve] | –
44 | COc1cc(C)nc(Oc2ccc(/C=N/O)cc2)n1 | 15.8 µM [rising, single point] | –
45 | COc1ccc(C2CC(c3ccccc3)=NN2C(=O)COC(=O)c2cccc(S(=O)(=O)N(C)C)c2)cc1 (configuration not stated) | 29.1 µM [rising, single point] | –
46 | CCOC(=O)C(C)(C)N(Cc1cccc(C)c1)S(=O)(=O)c1cccc([N+](=O)[O-])c1 | – | 25.9 µM [rising, partial curve, poor fit]
47 | Cc1cc2cc(CNC(=O)Nc3ccccc3)ccc2[nH]1 | 6.31 µM [rising, full curve] | –
48 | O=C(COc1ccccc1C(=O)c1cnn(-c2ccccc2)c1)Nc1ccc2ccccc2c1 | 1.84 µM [rising, partial curve, poor fit] | –
49 | CCCCn1c(=O)[nH]c(=O)c2c1nc(-c1ccc(OCC)cc1)n2CC | 2.82 µM [rising, single point] | –
50 | COc1ccc(OC)c(/C=C/c2c([N+](=O)[O-])c(=O)n(C)c(=O)n2C)c1 | 17.8 µM [falling, partial curve, poor fit] | –
51 | c1coc(CNc2nc3nonc3nc2NCc2ccco2)c1 | 23.1 µM [falling, single point] | –
52 | O=C(CNC(=O)c1ccco1)Nc1cccc(Cl)c1 | 3.16 µM [rising, full curve, poor fit] | –
53 | CCOC(=O)c1nnn(-c2nonc2N)c1COc1cc(C)c(Cl)c(C)c1 | 0.231 µM [falling, full curve, poor fit] | –
54 | CCC(=O)Nc1ccc(Cl)c(NC(=S)NC(=O)c2cc3ccccc3o2)c1 | 1.64 µM [rising, partial curve] | –
55 | COCCCC1CCN(C(=O)C2CCC(=O)N(CCc3ccccc3)C2)CC1 (configuration not stated) | 0.891 µM [rising, full curve] | –
56 | CN1CCC(=NNC(=O)CN(c2cccc([N+](=O)[O-])c2)S(=O)(=O)c2ccccc2)CC1 | 35.5 µM [falling, single point] | –
57 | NC(=O)c1nsc(C(=O)N(c2ccccc2)C(C(=O)NC2CCCC2)c2ccncc2)c1N (configuration not stated) | 3.55 µM [rising, single point] | –
58 | CCN(CC)S(=O)(=O)c1ccc2c(c1)c(=O)c(C(=O)NCCc1ccc(OC)c(OC)c1)cn2C | 11.2 µM [rising, partial curve, poor fit] | 5.62 µM [falling, partial curve]
59 | O=C(Nc1cnc2ccccn2c1=O)c1ccc(F)cc1 | 16.4 µM [falling, partial curve] | –
60 | COc1ccc(-n2nc3c(c2NC(=O)c2ccc(N4C(=O)CCC4=O)cc2)CSC3)cc1 | 20 µM [rising, single point] | –
